Test [1] concerns the target caveolin-1 (CAV1) (human (endogenous in Rosi, HCT116, WM852, WM793, Hs944T)) (UniProt Q03135). The test can be described thus: co-IP; endogenous proteins; extracts of Rosi and HCT116 cells (also WM852 and WM793, IP with CAV1) in 10 mM Tris pH 8, 150 mM NaCl, 1% Triton X-100, 60 mM octyl β-D-glucopyranoside; IP with anti-β-catenin, anti-CAV1, anti-PTEN or control IgG, protein G sepharose, 4 °C overnight; western blot. (In general: Immunoblotting shows a protein as a band on a membrane.)

Protein sequences, listed by entry. Tags and fused reporters are not part of them.
UniProt P35222: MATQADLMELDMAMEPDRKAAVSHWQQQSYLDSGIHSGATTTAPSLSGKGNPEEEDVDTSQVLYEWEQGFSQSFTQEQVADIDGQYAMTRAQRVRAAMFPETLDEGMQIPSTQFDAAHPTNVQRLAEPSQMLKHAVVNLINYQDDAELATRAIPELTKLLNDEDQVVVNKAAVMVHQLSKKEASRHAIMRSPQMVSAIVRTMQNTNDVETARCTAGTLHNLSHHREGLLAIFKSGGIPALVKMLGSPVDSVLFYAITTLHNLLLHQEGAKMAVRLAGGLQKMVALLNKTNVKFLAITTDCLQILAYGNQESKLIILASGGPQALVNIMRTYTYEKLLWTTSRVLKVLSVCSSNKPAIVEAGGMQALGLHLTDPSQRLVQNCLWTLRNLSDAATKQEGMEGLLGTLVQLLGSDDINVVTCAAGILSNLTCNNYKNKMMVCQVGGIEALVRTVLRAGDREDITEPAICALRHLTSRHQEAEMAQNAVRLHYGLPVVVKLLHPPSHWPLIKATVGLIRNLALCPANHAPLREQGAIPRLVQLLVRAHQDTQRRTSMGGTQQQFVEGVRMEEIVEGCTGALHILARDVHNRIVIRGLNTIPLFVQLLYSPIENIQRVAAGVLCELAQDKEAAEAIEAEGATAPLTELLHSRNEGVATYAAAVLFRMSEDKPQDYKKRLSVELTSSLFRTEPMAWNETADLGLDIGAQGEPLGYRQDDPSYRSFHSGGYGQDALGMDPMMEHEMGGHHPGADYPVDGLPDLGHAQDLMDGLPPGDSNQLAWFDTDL
UniProt Q02248: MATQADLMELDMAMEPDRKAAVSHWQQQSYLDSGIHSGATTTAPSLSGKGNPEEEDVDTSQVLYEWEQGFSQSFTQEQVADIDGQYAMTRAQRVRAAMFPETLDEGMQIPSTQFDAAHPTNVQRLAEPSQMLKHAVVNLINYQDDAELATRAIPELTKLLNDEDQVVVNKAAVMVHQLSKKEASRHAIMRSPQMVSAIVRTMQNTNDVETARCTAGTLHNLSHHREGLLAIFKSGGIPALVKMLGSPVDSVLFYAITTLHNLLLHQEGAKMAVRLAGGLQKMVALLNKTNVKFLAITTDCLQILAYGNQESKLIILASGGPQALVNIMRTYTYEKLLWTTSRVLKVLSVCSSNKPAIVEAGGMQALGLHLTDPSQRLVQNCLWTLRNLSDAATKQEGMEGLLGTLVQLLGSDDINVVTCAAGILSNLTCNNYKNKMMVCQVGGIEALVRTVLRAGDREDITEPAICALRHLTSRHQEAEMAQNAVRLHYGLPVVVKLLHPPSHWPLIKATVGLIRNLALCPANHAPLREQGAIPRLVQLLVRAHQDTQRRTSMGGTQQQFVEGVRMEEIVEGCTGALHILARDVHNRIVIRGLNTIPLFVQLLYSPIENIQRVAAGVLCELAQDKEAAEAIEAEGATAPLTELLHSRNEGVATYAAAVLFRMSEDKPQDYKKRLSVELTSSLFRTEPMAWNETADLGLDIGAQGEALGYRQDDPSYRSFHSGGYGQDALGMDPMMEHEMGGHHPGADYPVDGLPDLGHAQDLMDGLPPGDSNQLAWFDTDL

For test [2] the target is unchanged. Nature of the test: co-IP; Hs944T cells transiently transfected with GFP or PTEN; CAV1-BCAT immunocomplex, western blot.
Test [3] concerns the target T1, caveolin-1 (CAV1), mouse (mouse (endogenous in melanoma tumours)) (UniProt P49817).
T1 sequence: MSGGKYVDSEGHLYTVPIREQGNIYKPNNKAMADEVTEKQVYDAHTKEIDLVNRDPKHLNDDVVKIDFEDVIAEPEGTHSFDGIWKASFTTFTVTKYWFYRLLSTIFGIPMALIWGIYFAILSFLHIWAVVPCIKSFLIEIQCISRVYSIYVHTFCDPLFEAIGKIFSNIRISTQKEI
Nature of the test: co-IP; lysates of NRAS and NRAS-ΔPTEN mouse tumours, 400 μg total protein; IP with anti-CAV1 antibody; western blot with anti-β-catenin and anti-CAV1.

For test [4], the target named is β-catenin (human (endogenous in Rosi, HCT116, Hs944T)) (UniProt P35222). The test can be described thus: co-IP; endogenous proteins; extracts of Rosi and HCT116 cells (also WM852 and WM793, IP with CAV1) in 10 mM Tris pH 8, 150 mM NaCl, 1% Triton X-100, 60 mM octyl β-D-glucopyranoside; IP with anti-β-catenin, anti-CAV1, anti-PTEN or control IgG, protein G sepharose, 4 °C overnight; western blot.

For test [5], the target named is glutathione S-transferase–β-catenin fusion protein (UniProt P35222). The test can be described thus: pull-down; 20 μl β-catenin–GST beads with 500 μg whole-cell lysate of Hs944T cells transfected with GFP or PTEN, in PBS with protease inhibitors, 3 h at 4 °C; washed with 10 mM Tris pH 8, 150 mM NaCl, 1% Triton X-100, octyl β-D-glucopyranoside; immunoblot; only the target purified.

No constants are given. Whether binding was seen depends on the method and setting. In cells and extracts the contact can be indirect. Some binding calls cover weakened binding; strength is not graded here.

As for β-catenin (from UniProt P35222 1-781), the binding entry in test [1] and in test [2] was “binds” throughout.

With “β-catenin, mouse (from UniProt Q02248 1-781)”, in test [3], the binding entry was “binds”.

As for “caveolin-1 (CAV1) (from UniProt Q03135 1-178)”, the binding entry in test [4] and in test [5] was “binds” throughout.
